In the test the test system is CD2F1 mice, L1210 leukemia ip, survival T/C. As to the kind of experiment: NCI In Vivo Anticancer Drug Screen. Data for tumor model L1210 Leukemia (intraperitoneal) in CD2F1 (CDF1) mice. To be noted: higher T/C = longer survival. The method, then:
The antitumor activity of compounds was measured in mice bearing transplantable tumors. Survival or tumor size were measured and the results are expressed as the measurement made in the treated group (T) divided by the measurement made in the vehicle treated control group (C). The tumor model used in this assay is L1210 Leukemia (intraperitoneal) in CD2F1 (CDF1) mice

The mark [1] stands for this setting: T/C endpoint: mean survival time, dose: 50.0 mg/kg/injection, schedule: Q01DX009 (ip), vehicle: saline.
Setting [2] is: T/C endpoint: mean survival time, dose: 400.0 mg/kg/injection, schedule: Q01DX009 (ip), vehicle: saline.
[3] abbreviates: T/C endpoint: mean survival time, dose: 200.0 mg/kg/injection, schedule: Q01DX009 (ip), vehicle: Klucel (hydroxypropylcellulose) (HPC).
Setting [4] is: T/C endpoint: mean survival time, dose: 200.0 mg/kg/injection, schedule: Q01DX009 (ip), vehicle: saline.
Setting [5] is: T/C endpoint: mean survival time, dose: 100.0 mg/kg/injection, schedule: Q04DX003 (ip), vehicle: saline with Tween-80.

The list is a part of this screen's results and no random one: it is rich in T/C values a quarter to a half above the control, in often repeated tests (any T/C) and in doses without a T/C. Further doses and runs are listed elsewhere. T/C gives the treated animals as a percentage of the vehicle group. Some entries give survivors of the animals treated and no T/C: the source files T/C as zero there, which appears to mark a toxic dose or a test without result, not a measured value. Some survivor counts are full or nearly so, which does not show that the dose was tolerated: the source hardly ever lists a survival T/C far under the control, and the zero likely stands for such cases as well. Survivors were counted at the toxicity check, usually on the fifth day, unless a day is given; later deaths do not show. Schedule codes are those of the source, read here as Q, the interval in days (D) or hours (H), X, the number of doses. Some entries hold several experiments; their values stand side by side, smallest first. For survival time, this PubChem deposit counts one and a half times the control or more as active, and values a quarter to a half above the control carry no call in these data; other NCI protocols may use other cut-offs. Some T/C values are followed by the survivors on the day toxicity was checked, most often the fifth; where none is given, no animal had died by that day.

As to `c1cc2n(n1)CCN2`, the survivor count reads like this: under setting [1], 6 of 6; (T/C endpoint: mean survival time, dose: 128.0 mg/kg/injection, schedule: Q03HX008 (ip), vehicle: saline) 1 of 10; (T/C endpoint: mean survival time, dose: 128.0 mg/kg/injection, schedule: Q03HX016 (ip), vehicle: saline) 2 of 10; (T/C endpoint: mean survival time, dose: 128.0 mg/kg/injection, schedule: Q03HX024 (ip), vehicle: saline) 0 of 10; under setting [2], 2 of 6; (T/C endpoint: mean survival time, dose: 512.0 mg/kg/injection, schedule: Q01DX005 (ip), vehicle: saline) 1 of 10. The survivor count is, setting by setting: (T/C endpoint: mean survival time, dose: 512.0 mg/kg/injection, schedule: Q01DX009 (ip), vehicle: saline) 1 of 10; (T/C endpoint: mean survival time, dose: 1024.0 mg/kg/injection, schedule: Q04DX003 (ip), vehicle: saline) 7 of 10; (T/C endpoint: mean survival time, dose: 1024.0 mg/kg/injection, schedule: Q08DX002 (ip), vehicle: saline) 6 of 10. In addition, the T/C by setting is: (T/C endpoint: mean survival time, dose: 256.0 mg/kg/injection, schedule: Q04DX003 (ip), vehicle: saline) 126 % of control; (T/C endpoint: mean survival time, dose: 400.0 mg/kg/injection, schedule: Q04DX003 (ip), vehicle: water) 147 % of control [5 of 6 alive]; (T/C endpoint: mean survival time, dose: 400.0 mg/kg/injection, schedule: Q04DX003 (iv), vehicle: saline) 131 % of control; (T/C endpoint: mean survival time, dose: 512.0 mg/kg/injection, schedule: Q01DX001 (ip), vehicle: saline) 133 % of control; (T/C endpoint: mean survival time, dose: 600.0 mg/kg/injection, schedule: Q04DX003 (ip), vehicle: water) 131 % of control [5 of 6 alive]; (T/C endpoint: mean survival time, dose: 1024.0 mg/kg/injection, schedule: Q01DX001 (ip), vehicle: saline) 146 % of control [7 of 10 alive].

Regarding `O=[N+]([O-])CC(OCCO)C(Cl)(Cl)Cl` (stereo not given), the survivor count runs as follows: (T/C endpoint: mean survival time, dose: 35.0 mg/kg/injection, schedule: Q01DX009 (ip), vehicle: saline with Tween-80) 0 of 6; (T/C endpoint: mean survival time, dose: 50.0 mg/kg/injection, schedule: Q04DX003 (ip), vehicle: acetone) 2 of 6; (T/C endpoint: mean survival time, dose: 55.0 mg/kg/injection, schedule: Q01DX009 (ip), vehicle: saline with Tween-80) 0 of 6; (T/C endpoint: mean survival time, dose: 80.0 mg/kg/injection, schedule: Q01DX009 (ip), vehicle: saline with Tween-80) 0 of 6.

With `CC(=O)Oc1ccc(/C=N/NC(N)=S)nc1`, the T/C (T/C endpoint: mean survival time, dose: 9.4 mg/kg/injection, schedule: Q01DX009 (ip), vehicle: saline with Tween-80) was 136 % of control and the T/C (T/C endpoint: mean survival time, dose: 18.8 mg/kg/injection, schedule: Q01DX009 (ip), vehicle: saline with Tween-80) is 142 % of control.

For `CN(C)CC(C)(C)C(=O)c1ccccc1`, the survivor count runs as follows: (T/C endpoint: mean survival time, dose: 200.0 mg/kg/injection, schedule: Q04DX002 (ip), vehicle: saline) 0 of 3; (T/C endpoint: mean survival time, dose: 400.0 mg/kg/injection, schedule: Q04DX002 (ip), vehicle: saline) 0 of 3.

As for `CC([NH-])C([NH-])O.O=S(=O)(O)O.[Pt+2]` (stereo not given), under “T/C endpoint: mean survival time, dose: 6.25 mg/kg/injection, schedule: Q04DX003 (ip), vehicle: saline”, the T/C was 130 % of control.

For `CC1(CC(C)(C)C2CCCCC2)OCCO1`, the survivor count is, setting by setting: under setting [3], 6 of 6; (T/C endpoint: mean survival time, dose: 400.0 mg/kg/injection, schedule: Q01DX009 (ip), vehicle: Klucel (hydroxypropylcellulose) (HPC)) 4 of 6.

As to `O=S(=O)(Cl)c1cccc2c(S(=O)(=O)Cl)cccc12`, the T/C (T/C endpoint: mean survival time, dose: 100.0 mg/kg/injection, schedule: Q04DX003 (ip), vehicle: Klucel (hydroxypropylcellulose) (HPC)) was 125 % of control.

In the case of `CN(C)[C@@H]1C(=O)C(C(N)=O)=C(O)[C@@]2(O)C(=O)C3=C(O)c4c(O)ccc(Cl)c4[C@@](C)(O)[C@H]3C[C@@H]12`, the T/C runs as follows: (T/C endpoint: mean survival time, dose: 200.0 mg/kg/injection, schedule: Q01DX009 (ip), vehicle: saline with Tween-80) 143 % of control; under setting [4], 140 % of control [4 of 6 alive]. In addition, the survivor count is 0 of 6 and 6 of 10 (T/C endpoint: mean survival time, dose: 400.0 mg/kg/injection, schedule: Q01DX009 (ip), vehicle: saline with Tween-80); 0 of 6 under setting [2].

On to `COC(=O)C1=[N+]([O-])[N+]([O-])=C(C(=O)OC)C1=O`, for which the survivor count reads like this: (T/C endpoint: mean survival time, dose: 50.0 mg/kg/injection, schedule: Q01DX009 (ip), vehicle: Klucel (hydroxypropylcellulose) (HPC)) 2 of 3; (T/C endpoint: mean survival time, dose: 100.0 mg/kg/injection, schedule: Q01DX009 (ip), vehicle: Klucel (hydroxypropylcellulose) (HPC)) 0 of 3; under setting [3], 0 of 3.

`CCCCCCCCCCNCCS`: the survivor count by setting is: (T/C endpoint: mean survival time, dose: 10.0 mg/kg/injection, schedule: Q01DX009 (ip), vehicle: saline with Tween-80) 3 of 6; under setting [5], 0 of 6; (T/C endpoint: mean survival time, dose: 200.0 mg/kg/injection, schedule: Q04DX003 (ip), vehicle: saline with Tween-80) 1 of 6; (T/C endpoint: mean survival time, dose: 400.0 mg/kg/injection, schedule: Q04DX003 (ip), vehicle: saline with Tween-80) 0 of 6.

On to `Cc1ccc(CNC2=C(Cl)C(=O)c3ccccc3C2=O)cc1`, for which the survivor count is 0 of 6 (T/C endpoint: mean survival time, dose: 50.0 mg/kg/injection, schedule: Q04DX003 (ip), vehicle: saline with Tween-80) and 0 of 6 under setting [5].

As for `COc1cc2c(cc1OC)[C@@H]1C(=O)c3ccc4c(c3O[C@@H]1CO2)C[C@H](C(C)C)O4`, the T/C is 135 % of control (T/C endpoint: median survival time, dose: 50.0 mg/kg/injection, schedule: Q01DX005 (ip), vehicle: Klucel (hydroxypropylcellulose) (HPC), evaluated on day 20); 125 % of control (T/C endpoint: median survival time, dose: 50.0 mg/kg/injection, schedule: Q01DX005 (ip), vehicle: Klucel (hydroxypropylcellulose) (HPC), evaluated on day 30); 131 % of control (T/C endpoint: median survival time, dose: 83.33 mg/kg/injection, schedule: Q01DX005 (ip), vehicle: Klucel (hydroxypropylcellulose) (HPC)). For the same molecule, where the note is “T/C endpoint: median survival time, dose: 138.89 mg/kg/injection, schedule: Q01DX005 (ip), vehicle: Klucel (hydroxypropylcellulose) (HPC)”, the survivor count is on record as 2 of 6.

With `Nc1nc(=S)c2n[nH]nc2[nH]1`, the survivor count (T/C endpoint: mean survival time, dose: 100.0 mg/kg/injection, schedule: Q01DX001 (ip), vehicle: saline with Tween-80) is listed as 2 of 6.

As for `CN=C(N)N/N=C(\C)c1ccc2oc3ccc(/C(C)=N/NC(N)=NC)cc3c2c1`, the T/C reads like this: (T/C endpoint: median survival time, dose: 18.8 mg/kg/injection, schedule: Q01DX009 (ip), vehicle: saline with Tween-80) 125 % of control; (T/C endpoint: median survival time, dose: 25.0 mg/kg/injection, schedule: Q01DX009 (ip), vehicle: saline with Tween-80) 134 % of control; (T/C endpoint: median survival time, dose: 37.5 mg/kg/injection, schedule: Q01DX009 (ip), vehicle: saline with Tween-80) 127 % of control. Also, the survivor count runs as follows: (T/C endpoint: median survival time, dose: 100.0 mg/kg/injection, schedule: Q01DX009 (ip), vehicle: saline with Tween-80) 1 of 6; (T/C endpoint: median survival time, dose: 150.0 mg/kg/injection, schedule: Q01DX009 (ip), vehicle: saline with Tween-80) 0 of 6.

Consider `[O-]c1c(Cl)c(Cl)c(O[P+](c2ccccc2)(c2ccccc2)c2ccccc2)c(Cl)c1Cl`, for which the survivor count reads like this: under setting [1], 3 of 3; (T/C endpoint: mean survival time, dose: 100.0 mg/kg/injection, schedule: Q01DX009 (ip), vehicle: saline) 3 of 3; under setting [4], 0 of 3.

Turning to `O=C1OC(c2ccccc2)(c2ccccc2)C(=O)N1c1ccc(Br)cc1`, the survivor count reads like this: (T/C endpoint: median survival time, dose: 50.0 mg/kg/injection, schedule: Q04DX003 (ip), vehicle: saline with Tween-80) 3 of 3; (T/C endpoint: median survival time, dose: 100.0 mg/kg/injection, schedule: Q04DX003 (ip), vehicle: saline with Tween-80) 3 of 3; (T/C endpoint: median survival time, dose: 200.0 mg/kg/injection, schedule: Q04DX003 (ip), vehicle: saline with Tween-80) 2 of 3.

With `c1cc[c]([Sn]([NH]c2ncnc3[nH]cnc23)([NH]c2ncnc3[nH]cnc23)[c]2ccccc2)cc1`, the T/C reads like this: (T/C endpoint: median survival time, dose: 12.5 mg/kg/injection, schedule: Q01DX009 (ip), vehicle: saline) 130 % of control; (T/C endpoint: median survival time, dose: 50.0 mg/kg/injection, schedule: Q01DX009 (ip), vehicle: saline) 148 % of control. For the same molecule, the survivor count (T/C endpoint: median survival time, dose: 400.0 mg/kg/injection, schedule: Q01DX009 (ip), vehicle: saline with Tween-80) was 2 of 6 and the survivor count (T/C endpoint: median survival time, dose: 400.0 mg/kg/injection, schedule: Q01DX009 (ip), vehicle: suspension in saline) is reported as 0 of 6.

Source of the values: PubChem BioAssay AID256 (DTP/NCI, 2004).
